Binding data for 1 substance are collected here from article PMC12874371, “Screening of FDA-Approved Small Molecules to Discover Inhibitors of the Pseudomonas aeruginosa Quorum-Sensing Enzyme, PqsE” (Biochemistry, 2026).

The chains behind the UniProt entries cited, without tags or fusion partners.
UniProt P54292: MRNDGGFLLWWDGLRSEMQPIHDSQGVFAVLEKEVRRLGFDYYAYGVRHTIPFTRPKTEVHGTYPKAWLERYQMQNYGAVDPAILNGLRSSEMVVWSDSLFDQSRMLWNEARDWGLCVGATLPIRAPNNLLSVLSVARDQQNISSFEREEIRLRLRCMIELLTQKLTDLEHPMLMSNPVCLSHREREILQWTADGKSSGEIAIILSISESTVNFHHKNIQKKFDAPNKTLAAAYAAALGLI
UniProt P20581: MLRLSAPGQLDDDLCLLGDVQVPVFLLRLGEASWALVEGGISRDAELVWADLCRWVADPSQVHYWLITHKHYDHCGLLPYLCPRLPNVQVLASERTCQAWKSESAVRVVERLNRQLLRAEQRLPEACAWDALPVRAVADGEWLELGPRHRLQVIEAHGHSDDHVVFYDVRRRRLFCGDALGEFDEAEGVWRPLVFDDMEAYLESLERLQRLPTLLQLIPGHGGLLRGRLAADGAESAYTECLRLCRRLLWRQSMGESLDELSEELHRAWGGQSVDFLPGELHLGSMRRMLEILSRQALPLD

No constants are given. Whether binding was seen depends on the method and setting. In cells and extracts the contact can be indirect. Some binding calls cover weakened binding; strength is not graded here.

The experiment addresses RhlR (Pseudomonas aeruginosa) (UniProt P54292). Briefly: pull-down; in vitro pull-down of the PqsE-RhlR complex in the presence of Vorinostat, Trazodone or Apomorphine; bait and conditions not told in the text shown.

With “PqsE (from UniProt P20581 1-301) (enzyme)”, the binding result is “binds”.
